# Measurements reported in PubChem BioAssay AID1347431 (National Center for Advancing Translational Sciences (NCATS), 2020).
# Screen size: about 1,200 compounds; fewer than 10 were called active. Calls follow the shape of the dose curve; as a rule, active = well fitted curve in the direction sought with a large enough effect; inconclusive = small, poorly fitted or top-dose-only effect, or another doubt; inactive = no such curve, though single readings can be large or run the other way. This is one part of the list.
# Test: Confirmatory qHTS assay for inhibitors of Activation Induced Cytidine Deaminase (AID): UDG signals; also: 0% is about no effect
# Conditions: UDG coupled enzyme activity counter-screen; at 115 µM (top of the series) unless noted
# Outline: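 Fluorescence at 560 nm excitation/665 nm emission reports UDG activity, read after NaOH quench of a 4 h room-temperature reaction of DJC20/DJC23 substrates with AID (1 uM, 4/3x) and UDG (2 U/mL, 4/3x); compounds at 7.32 nM - 114 uM final, preincubated 10 min.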
row,SMILES,"activity change, negative = inhibition"
1,CCCCC1CCC(CCCC(C)CCC(=O)O)CC1 (centres undefined),inactive: -0.766%
2,COc1cc2c(=O)c(S(=O)(=O)c3ccc(C)cc3)cn(Cc3cccc(C)c3)c2cc1OC,inactive: -3.74%
3,CCOc1cccc(CNc2ccc(O)cc2)c1OCc1ccccc1Cl,inactive: -23.4%
4,CCOc1ccccc1NC(=O)C(C)Sc1nc(-c2ccccc2)c(C#N)c(=O)[nH]1 (centres undefined),inactive: -7.83%
5,Cc1ccccc1OCc1ccc(-c2nc(C#N)c(N3CCN(C)CC3)o2)o1,inactive: -0.767%
6,CCc1ccc(NC(=O)CSc2nccn2-c2cccc(C)c2C)cc1,inactive: -12.7%
7,O=C(Cc1ccc(F)cc1)N1CCC(c2nc3c(nnn3Cc3ccc(F)cc3)c(=O)[nH]2)CC1,inactive: 10.7%
8,CCn1cc2nc(SCc3ccc(C)cc3)n(CCc3ccccc3)c(=O)c2n1,inactive: -9.35%
9,CCOC(=O)C1=C(C)NC(=O)NC1c1cn(-c2ccccc2)nc1-c1ccc(OC(C)C)cc1 (centres undefined),inactive: -6.54%
10,O=C(CSc1nc(-c2cccs2)nc2cc(=O)[nH]n12)Nc1cccc(C(F)(F)F)c1,inactive: -2.26%
11,O=C(O)c1c(-c2ccccc2)oc2ccc(OCc3ccc(Cl)c(Cl)c3)cc12,inactive: 7.27%
12,CCCOc1ccc(-c2nn(-c3ccccc3)cc2C2NC(=O)NC(C)=C2C(=O)OC)cc1 (centres undefined),inactive: -8%
13,COc1ccc(C(=O)/C=C/c2cn(CC(O)CN(CC(C)C)CC(C)C)c3ccccc23)cc1 (centres undefined),inactive: -10.6%
14,CC(NC(=O)c1nn(C)c2c1CSc1ccccc1-2)c1ccccc1 (centres undefined),inactive: -3.98%
15,O=C(c1cnc2cc(-c3ccccc3)nn2c1)c1cc([N+](=O)[O-])ccc1O,inactive: 6.4%
16,COc1ccc(CCNC(=O)c2cc(Nc3cc(C)cc(C)c3)nc3ccccc23)cc1OC,inactive: -13.1%
17,CCCCOc1ccc(C(=O)N2CCC(c3nc4ccccc4o3)CC2)cc1,inactive: -7.07%
18,Cc1ccc(-c2nc(NC(=O)CSc3cc(C)c4ccccc4n3)ns2)cc1,inactive: -2.47%
19,COc1ccccc1C(=O)NCCn1cc(SCC(=O)Nc2ccccc2F)c2ccccc21,inactive: -3.69%
20,COc1ccc(C)cc1NC(=O)c1c(C)oc2ncn(CC(C)C)c(=O)c12,inactive: -5.34%
21,CCCn1cc(S(=O)(=O)c2ccccc2)c(=O)c2cc(F)c(N3CCCC(C)C3)cc21 (centres undefined),inactive: 9.54%
22,CCCCOc1ccc(C(=O)N2CC(=O)Nc3ccc(Br)cc3C2c2ccc(F)cc2)cc1 (centres undefined),inactive: -9.19%
23,CCCCOc1ccc(C(=O)Nc2ccc(S(=O)(=O)Nc3nc(C)cc(C)n3)cc2)cc1,inactive: 5.37%
24,CCc1nnc(SCc2cccc(F)c2)c2cc3sc(C)cc3n12,inactive: -2.57%
25,COc1ccc(-c2cn3cccnc3n2)cc1NC(=O)Nc1cc(C)ccc1C,inactive: 0.347%
26,Cc1ccc(Cl)cc1N1CCN(C(=O)c2cc3ccc4cccnc4c3[nH]2)CC1,inactive: -10.4%
27,CC(C)(C)c1ccc(OCc2nc3ccccc3n2CCOc2ccccc2)cc1,inactive: -9.15%

# Reformatted: entries from further up
row | SMILES | activity change, negative = inhibition
5 | Cc1ccccc1OCc1ccc(-c2nc(C#N)c(N3CCN(C)CC3)o2)o1 | inactive: -0.767%
10 | O=C(CSc1nc(-c2cccs2)nc2cc(=O)[nH]n12)Nc1cccc(C(F)(F)F)c1 | inactive: -2.26%
12 | CCCOc1ccc(-c2nn(-c3ccccc3)cc2C2NC(=O)NC(C)=C2C(=O)OC)cc1 (centres undefined) | inactive: -8%
23 | CCCCOc1ccc(C(=O)Nc2ccc(S(=O)(=O)Nc3nc(C)cc(C)n3)cc2)cc1 | inactive: 5.37%

# More entries

row,SMILES,"activity change, negative = inhibition"
1,CCOc1ccc(/C=C/c2nc(C#N)c(NCc3ccccc3)o2)cc1,inactive: 0.837%
2,COc1ccc(Nc2oc(-c3ccc(COc4ccccc4C)o3)nc2C#N)cc1,inactive: -0.444%
3,CCc1ccc(C(=O)c2cn(Cc3ccc(F)cc3)c3cc(OC)c(OC)cc3c2=O)cc1,inactive: -8.29%
4,CCc1ccc(N(CC)C(=O)c2sc3nc4n(c(=O)c3c2C)CCCC4)cc1,inactive: -12.9%
5,Cc1ccc(CSc2cn(CCNC(=O)c3cccs3)c3ccccc23)cc1,inactive: -4.02%
6,COc1ccc(Nc2ncc(C(=O)N3CCN(c4ccccc4OC)CC3)c3ccccc23)cc1,inactive: -7.33%
7,CCn1cc2nc(SCc3cccc(C)c3)n(CCc3ccccc3)c(=O)c2n1,inactive: -0.312%
8,Cc1nc2nc(SCC(=O)NC3CCC(C)CC3)nn2c(C)c1Cc1ccccc1Cl (centres undefined),inactive: -0.294%
9,CCC(NC(C)C)C(O)c1ccc(O)c(O)c1 (centres undefined),inactive: -13.3%
10,COc1ccc(CNCCC(c2ccc3c(c2)OCO3)c2ccccc2OC)cc1 (centres undefined),inactive: -4.11%
11,COc1ccc(Cn2cc(C(=O)c3ccc(C)c(C)c3)c(=O)c3ccccc32)cc1,inactive: -4.47%
12,COc1ccc(CNC(=O)Nc2ccc3c(c2)N(C)C(=O)c2ccccc2S3)cc1OC,inactive: 1.85%
13,Cc1ccc(CNC(=O)c2c[nH]n3c(=O)c(Cc4ccc(Cl)cc4)c(C)nc23)cc1,inactive: -6.36%
14,CC(=O)c1cccc(NC(=O)CC(c2ccc(C)cc2)N2Cc3ccccc3C2=O)c1 (centres undefined),inactive: 11.1%
15,CCOc1ccc(-c2cc(C(=O)NCc3ccccc3Cl)c3ccccc3n2)cc1,inactive: -1.32%
16,CCn1cc2c(n1)-c1c(oc(C(=O)Nc3cccc(C)c3C)c1C)CC2,inactive: 1.8%
17,Cc1ccc(OCC(=O)Nc2cccc(OCc3cc(=O)n4cccc(C)c4n3)c2)cc1C,inactive: -13.9%
18,CCc1ccc(CN(Cc2ccco2)c2cnc(S(C)(=O)=O)nc2C(=O)Nc2ccc(C)c(Cl)c2)cc1,inactive: -3.03%
19,COc1ccc(-c2nc3ccccc3n2Cc2ccc(C(C)C)cc2)cc1,inactive: -2.72%
20,CCOc1cc(CNCCSc2nnnn2C)ccc1OCc1ccc(Cl)cc1Cl,inactive: -11%
21,CCCCN(C)CC(O)Cn1cc(/C=C/C(=O)c2ccc(OC)c(OC)c2)c2ccccc21 (centres undefined),inactive: -8.09%
22,Cc1ccc(Cl)cc1N1CCN(C(=O)c2cccn2-c2nnc(N3CCCCC3)s2)CC1,inactive: -3.12%
23,COc1ccccc1OCCn1c(C(C)Oc2ccccc2)nc2ccccc21 (centres undefined),inactive: -7.15%
24,Cc1cccc(-c2nnc(SCC(=O)N3CCCc4ccccc43)o2)c1,inactive: -1.78%
25,CC(=O)c1ccc(C(=O)N(Cc2cccnc2)c2nc3c(Cl)cccc3s2)cc1,inactive: -1.39%
26,O=C(c1cccc(Cl)c1)N(Cc1ccco1)Cc1ccccc1Cl,inactive: -2.38%
27,O=C(O)c1ccc(Nc2nc(-c3ccccc3)c3cc(Br)ccc3n2)cc1,inactive: 1.94%
